Experimental data reported in the supplement of paper PMC10849652.
The other results are listed elsewhere or left out.

By UniProt entry, the sequences of proteins in these tests, tags left out. Where a name states a change or a piece, a line headed by the entry shows the natural chain unless it says otherwise.
UniProt P51659: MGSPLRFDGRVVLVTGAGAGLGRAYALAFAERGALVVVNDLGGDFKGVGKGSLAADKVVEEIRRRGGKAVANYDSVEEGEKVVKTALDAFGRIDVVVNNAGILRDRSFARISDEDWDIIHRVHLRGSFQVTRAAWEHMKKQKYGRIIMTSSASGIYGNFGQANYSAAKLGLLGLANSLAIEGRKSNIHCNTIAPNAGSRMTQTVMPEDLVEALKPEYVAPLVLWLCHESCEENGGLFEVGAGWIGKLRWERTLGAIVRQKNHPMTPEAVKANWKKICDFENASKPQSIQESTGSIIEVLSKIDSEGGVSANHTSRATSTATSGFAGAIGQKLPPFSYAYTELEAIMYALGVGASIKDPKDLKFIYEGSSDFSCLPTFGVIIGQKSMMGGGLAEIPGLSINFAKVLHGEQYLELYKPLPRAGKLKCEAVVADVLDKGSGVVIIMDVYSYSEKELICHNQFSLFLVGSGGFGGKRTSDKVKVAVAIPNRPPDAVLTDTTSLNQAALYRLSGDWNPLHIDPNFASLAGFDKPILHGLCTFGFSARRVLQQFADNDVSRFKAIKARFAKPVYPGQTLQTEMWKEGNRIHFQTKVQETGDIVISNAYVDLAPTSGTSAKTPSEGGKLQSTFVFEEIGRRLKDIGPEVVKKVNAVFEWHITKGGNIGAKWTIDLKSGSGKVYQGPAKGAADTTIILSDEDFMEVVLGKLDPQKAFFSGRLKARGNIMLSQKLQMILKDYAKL
UniProt P51991: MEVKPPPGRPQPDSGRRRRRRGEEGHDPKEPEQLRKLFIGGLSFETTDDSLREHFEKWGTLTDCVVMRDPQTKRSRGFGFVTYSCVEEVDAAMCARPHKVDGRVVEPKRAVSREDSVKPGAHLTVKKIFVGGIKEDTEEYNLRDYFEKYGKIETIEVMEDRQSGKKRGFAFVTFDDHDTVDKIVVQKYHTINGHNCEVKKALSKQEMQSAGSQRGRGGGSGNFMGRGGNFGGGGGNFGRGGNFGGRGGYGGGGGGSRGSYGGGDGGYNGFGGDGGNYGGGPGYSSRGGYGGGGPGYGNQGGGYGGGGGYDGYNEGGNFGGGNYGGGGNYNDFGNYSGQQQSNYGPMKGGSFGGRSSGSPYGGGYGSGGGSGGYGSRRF
UniProt Q6NT76: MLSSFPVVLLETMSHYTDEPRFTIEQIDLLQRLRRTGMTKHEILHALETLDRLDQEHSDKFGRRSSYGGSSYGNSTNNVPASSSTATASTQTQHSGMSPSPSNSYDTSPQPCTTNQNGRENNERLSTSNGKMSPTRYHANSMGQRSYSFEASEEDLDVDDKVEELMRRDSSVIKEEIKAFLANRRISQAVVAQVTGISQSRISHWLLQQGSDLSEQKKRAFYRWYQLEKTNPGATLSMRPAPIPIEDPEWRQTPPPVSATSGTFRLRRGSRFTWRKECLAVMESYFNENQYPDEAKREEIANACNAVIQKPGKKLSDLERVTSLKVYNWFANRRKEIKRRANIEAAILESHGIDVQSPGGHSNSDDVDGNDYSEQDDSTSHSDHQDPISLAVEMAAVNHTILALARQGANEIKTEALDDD
UniProt Q14527: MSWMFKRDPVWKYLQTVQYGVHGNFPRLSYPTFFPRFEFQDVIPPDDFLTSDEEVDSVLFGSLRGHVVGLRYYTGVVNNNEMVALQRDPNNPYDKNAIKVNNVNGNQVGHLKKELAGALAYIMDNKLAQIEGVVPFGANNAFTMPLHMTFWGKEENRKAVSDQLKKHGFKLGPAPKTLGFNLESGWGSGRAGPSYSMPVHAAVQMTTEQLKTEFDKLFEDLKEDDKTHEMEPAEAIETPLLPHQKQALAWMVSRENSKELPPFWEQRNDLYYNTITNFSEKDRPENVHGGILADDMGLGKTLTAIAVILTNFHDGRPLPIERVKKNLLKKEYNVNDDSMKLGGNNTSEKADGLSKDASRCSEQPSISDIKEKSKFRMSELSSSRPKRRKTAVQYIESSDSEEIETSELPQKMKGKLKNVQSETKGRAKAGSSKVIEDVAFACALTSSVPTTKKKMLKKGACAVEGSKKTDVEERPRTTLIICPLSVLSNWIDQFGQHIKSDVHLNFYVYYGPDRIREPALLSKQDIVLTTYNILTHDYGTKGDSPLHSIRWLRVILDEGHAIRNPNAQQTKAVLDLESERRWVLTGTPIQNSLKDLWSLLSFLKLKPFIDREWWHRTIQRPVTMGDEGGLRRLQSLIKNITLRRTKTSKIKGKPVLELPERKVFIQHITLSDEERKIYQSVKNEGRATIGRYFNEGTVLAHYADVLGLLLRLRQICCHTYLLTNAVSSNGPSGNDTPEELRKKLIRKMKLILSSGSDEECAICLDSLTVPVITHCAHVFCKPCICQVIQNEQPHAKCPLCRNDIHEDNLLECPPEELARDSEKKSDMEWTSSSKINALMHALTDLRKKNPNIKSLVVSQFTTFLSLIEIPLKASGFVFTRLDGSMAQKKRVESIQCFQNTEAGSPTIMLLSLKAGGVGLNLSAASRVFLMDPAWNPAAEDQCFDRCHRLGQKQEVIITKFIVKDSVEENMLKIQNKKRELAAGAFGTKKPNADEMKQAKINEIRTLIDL
UniProt P52789: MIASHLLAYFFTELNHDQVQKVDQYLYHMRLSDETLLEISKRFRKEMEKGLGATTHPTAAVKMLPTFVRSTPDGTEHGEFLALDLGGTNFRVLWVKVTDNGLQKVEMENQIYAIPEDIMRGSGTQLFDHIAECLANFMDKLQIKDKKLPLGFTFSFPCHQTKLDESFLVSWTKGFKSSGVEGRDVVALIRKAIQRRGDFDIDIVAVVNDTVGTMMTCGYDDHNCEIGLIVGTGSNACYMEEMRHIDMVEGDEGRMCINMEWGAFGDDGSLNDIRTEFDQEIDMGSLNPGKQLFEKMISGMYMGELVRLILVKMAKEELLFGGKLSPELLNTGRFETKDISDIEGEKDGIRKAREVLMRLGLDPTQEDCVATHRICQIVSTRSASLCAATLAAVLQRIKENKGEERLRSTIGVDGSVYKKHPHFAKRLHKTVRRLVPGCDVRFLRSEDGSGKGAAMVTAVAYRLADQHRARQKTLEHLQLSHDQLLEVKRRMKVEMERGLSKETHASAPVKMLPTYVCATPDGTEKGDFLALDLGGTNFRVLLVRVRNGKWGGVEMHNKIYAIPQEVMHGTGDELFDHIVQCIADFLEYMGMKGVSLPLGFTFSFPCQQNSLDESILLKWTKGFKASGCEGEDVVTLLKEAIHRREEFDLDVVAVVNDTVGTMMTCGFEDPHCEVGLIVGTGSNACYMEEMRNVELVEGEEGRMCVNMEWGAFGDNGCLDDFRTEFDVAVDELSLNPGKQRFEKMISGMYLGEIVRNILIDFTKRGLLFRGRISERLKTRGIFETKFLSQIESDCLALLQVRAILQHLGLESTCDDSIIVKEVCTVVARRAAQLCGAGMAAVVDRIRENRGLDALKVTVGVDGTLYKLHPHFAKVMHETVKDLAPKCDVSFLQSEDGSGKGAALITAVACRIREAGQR
UniProt P52272: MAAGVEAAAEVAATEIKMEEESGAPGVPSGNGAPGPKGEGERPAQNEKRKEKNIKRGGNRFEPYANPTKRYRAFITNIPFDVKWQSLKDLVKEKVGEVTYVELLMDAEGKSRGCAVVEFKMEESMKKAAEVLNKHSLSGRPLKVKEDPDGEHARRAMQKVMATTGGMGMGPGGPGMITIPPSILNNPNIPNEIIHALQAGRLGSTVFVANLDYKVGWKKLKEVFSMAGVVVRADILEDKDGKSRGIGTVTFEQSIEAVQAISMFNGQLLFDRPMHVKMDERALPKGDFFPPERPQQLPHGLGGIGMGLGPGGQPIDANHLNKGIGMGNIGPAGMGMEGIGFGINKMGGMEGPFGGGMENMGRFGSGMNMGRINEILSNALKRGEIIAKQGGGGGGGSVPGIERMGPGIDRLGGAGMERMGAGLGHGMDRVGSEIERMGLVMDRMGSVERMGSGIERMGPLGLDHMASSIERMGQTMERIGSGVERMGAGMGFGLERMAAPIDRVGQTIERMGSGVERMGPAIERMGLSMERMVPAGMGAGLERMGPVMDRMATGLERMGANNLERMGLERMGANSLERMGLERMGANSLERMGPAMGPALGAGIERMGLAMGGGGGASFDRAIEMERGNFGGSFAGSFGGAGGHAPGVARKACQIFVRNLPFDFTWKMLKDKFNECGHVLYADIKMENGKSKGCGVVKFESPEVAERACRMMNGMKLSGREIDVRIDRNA
UniProt Q6DN03, whole entry, looked up: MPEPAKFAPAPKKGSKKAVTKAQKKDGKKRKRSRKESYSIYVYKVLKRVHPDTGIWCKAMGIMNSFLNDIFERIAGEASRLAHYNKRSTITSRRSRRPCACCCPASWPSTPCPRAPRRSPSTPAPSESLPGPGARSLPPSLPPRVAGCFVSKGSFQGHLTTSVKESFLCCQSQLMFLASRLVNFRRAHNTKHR
UniProt Q03014: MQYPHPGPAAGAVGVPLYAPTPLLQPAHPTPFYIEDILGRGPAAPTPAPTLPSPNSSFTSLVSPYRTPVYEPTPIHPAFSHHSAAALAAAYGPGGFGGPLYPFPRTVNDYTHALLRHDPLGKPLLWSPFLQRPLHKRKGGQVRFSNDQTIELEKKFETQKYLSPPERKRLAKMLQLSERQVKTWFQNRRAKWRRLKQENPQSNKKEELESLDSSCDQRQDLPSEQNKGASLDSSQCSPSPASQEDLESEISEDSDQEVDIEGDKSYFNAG
UniProt P50747: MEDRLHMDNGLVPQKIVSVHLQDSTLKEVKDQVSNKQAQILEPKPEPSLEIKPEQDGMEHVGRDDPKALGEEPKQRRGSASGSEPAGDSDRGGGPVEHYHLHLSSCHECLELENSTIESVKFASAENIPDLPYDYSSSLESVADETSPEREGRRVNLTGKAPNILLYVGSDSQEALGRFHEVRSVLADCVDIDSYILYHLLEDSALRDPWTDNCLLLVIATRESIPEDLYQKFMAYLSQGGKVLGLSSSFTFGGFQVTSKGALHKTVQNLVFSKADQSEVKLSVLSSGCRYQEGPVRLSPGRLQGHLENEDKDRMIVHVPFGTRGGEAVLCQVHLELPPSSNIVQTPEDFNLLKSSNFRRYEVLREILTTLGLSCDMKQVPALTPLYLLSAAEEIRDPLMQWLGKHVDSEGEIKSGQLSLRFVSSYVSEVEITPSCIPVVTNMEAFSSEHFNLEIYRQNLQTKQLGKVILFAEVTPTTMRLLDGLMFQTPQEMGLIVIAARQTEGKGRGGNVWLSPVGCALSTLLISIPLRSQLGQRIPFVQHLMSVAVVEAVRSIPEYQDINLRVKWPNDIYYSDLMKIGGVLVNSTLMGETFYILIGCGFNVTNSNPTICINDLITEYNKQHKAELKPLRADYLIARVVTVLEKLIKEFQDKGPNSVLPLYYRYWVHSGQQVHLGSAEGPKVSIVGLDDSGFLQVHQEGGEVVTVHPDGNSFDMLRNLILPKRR
UniProt O75330: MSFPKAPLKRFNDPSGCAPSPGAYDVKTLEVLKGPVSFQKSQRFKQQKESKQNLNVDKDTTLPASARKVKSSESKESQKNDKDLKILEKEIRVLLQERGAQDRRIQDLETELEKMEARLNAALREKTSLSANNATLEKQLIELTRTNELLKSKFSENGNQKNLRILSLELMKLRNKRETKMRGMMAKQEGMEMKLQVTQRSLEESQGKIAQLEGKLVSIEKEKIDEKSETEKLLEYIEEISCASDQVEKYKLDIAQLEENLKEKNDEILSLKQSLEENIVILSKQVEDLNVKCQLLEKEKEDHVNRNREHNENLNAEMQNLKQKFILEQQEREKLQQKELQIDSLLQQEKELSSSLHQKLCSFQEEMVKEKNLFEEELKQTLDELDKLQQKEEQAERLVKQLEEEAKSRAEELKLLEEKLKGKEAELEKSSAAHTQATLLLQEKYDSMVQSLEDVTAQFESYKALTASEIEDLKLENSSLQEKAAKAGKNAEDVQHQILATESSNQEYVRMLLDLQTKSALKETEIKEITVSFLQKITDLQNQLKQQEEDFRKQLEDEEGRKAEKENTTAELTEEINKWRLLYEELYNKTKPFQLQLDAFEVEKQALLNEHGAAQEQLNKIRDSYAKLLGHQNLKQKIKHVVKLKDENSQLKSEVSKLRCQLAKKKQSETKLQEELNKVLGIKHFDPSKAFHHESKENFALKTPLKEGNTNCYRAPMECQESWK
UniProt Q6NVY1: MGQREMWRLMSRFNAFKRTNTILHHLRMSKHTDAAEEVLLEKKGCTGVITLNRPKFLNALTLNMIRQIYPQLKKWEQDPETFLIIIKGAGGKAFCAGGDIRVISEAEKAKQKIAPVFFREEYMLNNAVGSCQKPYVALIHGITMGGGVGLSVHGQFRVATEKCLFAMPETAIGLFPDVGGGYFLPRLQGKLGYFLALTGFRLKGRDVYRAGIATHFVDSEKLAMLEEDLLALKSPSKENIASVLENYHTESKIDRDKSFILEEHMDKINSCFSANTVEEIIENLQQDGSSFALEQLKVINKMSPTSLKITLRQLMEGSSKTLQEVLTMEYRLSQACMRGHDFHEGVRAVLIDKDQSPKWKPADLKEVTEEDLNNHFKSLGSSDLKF

Legend:
Assay in all cases: log2 fold change, soluble protein after heating vs DMSO (PISA); higher = thermal stabilisation; K562 lysate, 10 uM; active = over 0.2 and 3.5 SD of the protein, either way, in both replicates (recomputed)
vemurafenib = compound: CCCS(=O)(=O)Nc1ccc(F)c(C(=O)c2c[nH]c3ncc(-c4ccc(Cl)cc4)cc23)c1F [vemurafenib]
Method in brief: (§1)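 The values are log-two fold changes in thermal stability compared with solvent controls and come from duplicates. They were obtained by TMTpro 16plex LC-MS/MS, with channel sums equalised, on the supernatant after 21,000xg for 90 min. That supernatant came from crude K562 extract at 1 mg/mL protein treated with 10 μM compound for 30 min, heated for 3 min across 48°C-58°C, pooled and brought to 0.5% NP-40 at 4°C.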

[1] = compound: CCCS(=O)(=O)Nc1ccc(F)c(C(=O)c2c[nH]c3ncc(Cl)cc23)c1F
Method in brief: as §1

barasertib = compound: CCN(CCCOc1ccc2c(Nc3cc(CC(=O)Nc4cccc(F)c4)[nH]n3)ncnc2c1)CCOP(=O)(O)O [barasertib]
Method in brief: as §1

[2] = compound: CC[C@@H]1C(=O)N(C)c2cnc(Nc3ccc(C(=O)NC4CCN(C)CC4)cc3OC)nc2N1C1CCCC1
Method in brief: as §1

volasertib = compound: CC[C@@H]1C(=O)N(C)c2cnc(Nc3ccc(C(=O)N[C@H]4CC[C@H](N5CCN(CC6CC6)CC5)CC4)cc3OC)nc2N1C(C)C [volasertib]
Method in brief: as §1

[3] = compound: CCn1c(C(=O)N(C2CC2)C2CC2)cc2c3c(ncn3C)c(Nc3cc(C)n(C)n3)nc21
Method in brief: as §1

[4] = compound: CCn1cc(-c2ccnc3[nH]c(-c4cccc(CN(C)C)c4)cc23)c(-c2ccc(NC(=O)N(C)C)cc2)n1
Method in brief: as §1

[5] = compound: CN1CCC(CNc2ccc3ncc(-c4cccc(OC(F)(F)F)c4)n3n2)CC1
Method in brief: as §1

saracatinib = compound: CN1CCN(CCOc2cc(OC3CCOCC3)c3c(Nc4c(Cl)ccc5c4OCO5)ncnc3c2)CC1 [saracatinib]
Method in brief: as §1

sotrastaurin = compound: CN1CCN(c2nc(C3=C(c4c[nH]c5ccccc45)C(=O)NC3=O)c3ccccc3n2)CC1 [sotrastaurin]
Method in brief: as §1

alvocidib = compound: CN1CC[C@H](c2c(O)cc(O)c3c(=O)cc(-c4ccccc4Cl)oc23)[C@H](O)C1 [alvocidib]
Method in brief: as §1

Tubastatin A = compound: CN1CCc2c(c3ccccc3n2Cc2ccc(C(=O)NO)cc2)C1 [Tubastatin A]
Method in brief: as §1

[6] = compound: CNC(=O)C1=CC=CC=C1NC2=NC(=NC=C2Cl)NC3=C(C=C(C=C3)N4CCOCC4)OC
Method in brief: as §1

defactinib = compound: CNC(=O)c1ccc(Nc2ncc(C(F)(F)F)c(NCc3nccnc3N(C)S(C)(=O)=O)n2)cc1 [defactinib]
Method in brief: as §1

[7] = compound: CNc1nc(-c2ccc3c(N)n[nH]c3c2)cc(N2C[C@@H](C(=O)NC3CCCCC3)CC[C@H]2C)n1
Method in brief: as §1

encorafenib = compound: COC(=O)N[C@@H](C)CNc1nccc(-c2cn(C(C)C)nc2-c2cc(Cl)cc(NS(C)(=O)=O)c2F)n1 [encorafenib]
Method in brief: as §1

[8] = compound: COC(=O)[C@H](CCSC)NC(=O)C1=C(C=C(C=C1)NC[C@H](CS)N)C2=CC=CC=C2
Method in brief: as §1

alisertib = compound: COc1cc(Nc2ncc3c(n2)-c2ccc(Cl)cc2C(c2c(F)cccc2OC)=NC3)ccc1C(=O)O [alisertib]
Method in brief: as §1

[9] = compound: COc1cc2nc(-c3cc(F)ccc3O)nc(N[C@@H]3CNC[C@H]3C(C)(C)O)c2cc1OC
Method in brief: as §1

gefitinib = compound: COc1cc2ncnc(Nc3ccc(F)c(Cl)c3)c2cc1OCCCN1CCOCC1 [gefitinib]
Method in brief: as §1

Measured: log2 fold change

HSF1 (UniProt Q00613)
inactive: vemurafenib -0.022 | [1] 0.036 | barasertib 0.022 | [2] -0.007 | volasertib -0.016 | [3] -0.016 | [4] 0.013 | [5] -0.108 | saracatinib 0.015 | sotrastaurin 0.017 | alvocidib 0.033 | Tubastatin A -0.025 | [6] 0.044 | defactinib 0.008 | [7] -0.023 | encorafenib 0.022 | [8] -0.023 | alisertib 0.004 | [9] -0.001 | gefitinib 0.03

HSD17B4 (UniProt P51659)
inactive: vemurafenib -0.001 | [1] 0.014 | barasertib 0.005 | [2] 0.028 | volasertib -0.023 | [3] 0.004 | [4] -0.015 | [5] 0.029 | saracatinib -0.026 | sotrastaurin -0.024 | alvocidib 0.009 | Tubastatin A 0.03 | [6] -0.003 | defactinib 0.002 | [7] 0.009 | encorafenib 0.001 | [8] -0.119 | alisertib 0.03 | [9] -0.008 | gefitinib -0.011

HNRNPA3 (UniProt P51991)
inactive: vemurafenib -0.075 | [1] -0.001 | barasertib -0.001 | [2] -0.032 | volasertib -0.005 | [3] 0.055 | [4] -0.054 | [5] -0.02 | saracatinib -0.042 | sotrastaurin -0.026 | alvocidib 0.065 | Tubastatin A -0.11 | [6] -0.019 | defactinib -0.006 | [7] -0.051 | encorafenib 0.006 | [8] -0.041 | alisertib 0.006 | [9] -0.024 | gefitinib -0.017

HMBOX1 isoform 5 (UniProt Q6NT76)
inactive: vemurafenib 0.028 | [1] -0.086 | barasertib -0.001 | [2] 0.122 | volasertib -0.059 | [3] -0.038 | [4] -0.043 | [5] -0.071 | saracatinib -0.003 | sotrastaurin -0.013 | alvocidib -0.078 | Tubastatin A -0.003 | [6] -0.005 | defactinib 0.012 | [7] 0.066 | encorafenib -0.037 | [8] -0.016 | alisertib -0.156 | [9] 0.02 | gefitinib -0.091

HINT2 (UniProt Q9BX68)
inactive: vemurafenib -0.078 | [1] -0.055 | barasertib 0.143 | [2] -0.066 | volasertib 0.016 | [3] 0.128 | [4] -0.055 | [5] -0.1 | saracatinib 0.03 | sotrastaurin -0.028 | alvocidib 0.069 | Tubastatin A 0.036 | [6] 0.064 | defactinib 0.203 | [7] 0.02 | encorafenib 0.061 | [8] 0.014 | alisertib 0.057 | [9] -0.051 | gefitinib -0.115

HEXIM1 (UniProt O94992)
inactive: vemurafenib 0.049 | [1] 0.014 | barasertib -0.007 | [2] 0.04 | volasertib 0.005 | [3] -0.007 | [4] 0.01 | [5] -0.012 | saracatinib -0.017 | sotrastaurin -0.025 | alvocidib -0.047 | Tubastatin A 0.014 | [6] 0.015 | defactinib 0.035 | [7] 0.068 | encorafenib 0.004 | [8] -0.061 | alisertib 0.03 | [9] 0.041 | gefitinib -0.014

HNRNPH3 (UniProt P31942)
inactive: vemurafenib 0.002 | [1] 0.032 | barasertib 0.021 | [2] 0.012 | volasertib -0.073 | [3] 0.061 | [4] -0.058 | [5] -0.07 | saracatinib -0.022 | sotrastaurin -0.003 | alvocidib 0.021 | Tubastatin A -0.255 | [6] 0.002 | defactinib 0.036 | [7] -0.063 | encorafenib 0.04 | [8] 0.031 | alisertib 0 | [9] 0.002 | gefitinib -0.029

HLTF (UniProt Q14527)
inactive: vemurafenib -0.008 | [1] -0.044 | barasertib 0.077 | [2] -0.002 | volasertib -0.043 | [3] 0.028 | [4] -0.024 | [5] 0.073 | saracatinib 0.004 | sotrastaurin 0.017 | alvocidib -0.027 | Tubastatin A -0.083 | [6] -0.001 | defactinib 0.028 | [7] 0.025 | encorafenib 0.004 | [8] 0.104 | alisertib 0.048 | [9] 0.01 | gefitinib 0.076

HK2 (UniProt P52789)
inactive: vemurafenib 0.046 | [1] 0.006 | barasertib 0.009 | [2] -0.044 | volasertib -0.049 | [3] 0.023 | [4] -0.015 | [5] -0.075 | saracatinib -0.009 | sotrastaurin 0.001 | alvocidib 0.006 | Tubastatin A -0.17 | [6] 0.024 | defactinib 0.017 | [7] -0.006 | encorafenib 0 | [8] 0.165 | alisertib 0.023 | [9] -0.031 | gefitinib -0.016

HNRNPUL2 (UniProt Q1KMD3)
inactive: vemurafenib 0.024 | [1] 0.017 | barasertib 0.038 | [2] 0.005 | volasertib -0.009 | [3] -0.012 | [4] -0.029 | [5] 0.008 | saracatinib 0.029 | sotrastaurin 0.04 | alvocidib -0.001 | Tubastatin A 0.007 | [6] 0.004 | defactinib 0.002 | [7] -0.009 | encorafenib -0.023 | [8] 0.105 | alisertib 0.009 | [9] 0.019 | gefitinib -0.023

HNRNPM (UniProt P52272)
inactive: vemurafenib -0.017 | [1] -0.013 | barasertib 0.079 | [2] 0.027 | volasertib -0.107 | [3] 0.046 | [4] -0.017 | [5] -0.01 | saracatinib 0.055 | sotrastaurin 0.024 | alvocidib -0.01 | Tubastatin A -0.096 | [6] 0.022 | defactinib 0.045 | [7] -0.067 | encorafenib 0.166 | [8] -0.035 | alisertib 0.069 | [9] 0.037 | gefitinib 0.012

HIST2H2BC (UniProt Q6DN03)
inactive: vemurafenib -0.261 | [1] 0.026 | barasertib -0.029 | [2] -0.05 | volasertib 0.013 | [3] 0.033 | [5] -0.024 | saracatinib 0 | sotrastaurin -0.01 | alvocidib 0.024 | Tubastatin A 0.004 | [6] 0.019 | defactinib -0.148 | [7] -0.003 | encorafenib 0.092 | [8] 0.143 | alisertib 0.005 | [9] 0.008 | gefitinib -0.12
active: [4] 0.291

HHEX (UniProt Q03014)
inactive: vemurafenib -0.034 | [1] -0.026 | barasertib 0.21 | [2] 0.287 | volasertib -0.003 | [3] 0.111 | [4] 0.074 | [5] 0.028 | saracatinib 0.054 | sotrastaurin -0.024 | alvocidib -0.035 | Tubastatin A -0.052 | [6] 0.026 | defactinib 0.069 | [7] -0.029 | encorafenib -0.056 | [8] 0.309 | alisertib 0.069 | [9] 0.175 | gefitinib 0.026

HLCS (UniProt P50747)
active: [4] 0.293
inactive: vemurafenib -0.002 | [1] 0.034 | barasertib -0.001 | [2] -0.034 | volasertib -0.054 | [3] 0.003 | [5] -0.041 | saracatinib -0.026 | sotrastaurin 0.027 | alvocidib -0.015 | Tubastatin A 0.036 | [6] 0.018 | defactinib 0.017 | [7] 0.025 | encorafenib 0.003 | [8] 0.053 | alisertib -0.01 | [9] 0.038 | gefitinib 0.013

HMMR isoform 3 (UniProt O75330)
inactive: vemurafenib -0.01 | [1] 0.003 | barasertib 0.005 | [2] 0.035 | volasertib -0.001 | [3] -0.008 | [4] 0.003 | [5] -0.021 | saracatinib 0.008 | sotrastaurin 0.027 | alvocidib -0.005 | Tubastatin A -0.014 | [6] 0.015 | defactinib 0.022 | [7] 0.007 | encorafenib 0.009 | [8] -0.004 | alisertib 0.001 | [9] -0.009 | gefitinib 0.007

HIBCH (UniProt Q6NVY1)
inactive: vemurafenib 0.026 | [1] -0.015 | barasertib 0.028 | [2] -0.028 | volasertib 0.002 | [3] -0.013 | [4] 0.087 | [5] -0.036 | saracatinib -0.031 | sotrastaurin 0.03 | alvocidib 0.033 | Tubastatin A 0.022 | [6] 0.004 | defactinib -0.022 | [7] -0.029 | encorafenib -0.04 | [8] 0.018 | alisertib 0 | [9] -0.028 | gefitinib 0.001
